In assay [1] the target is T1, CmpC with C-terminal HA-H6 tag (bait of the IMAC pull-down; constructs GM337, GM339) (Synechococcus sp. PCC7942) (UniProt Q55107).
T1 sequence: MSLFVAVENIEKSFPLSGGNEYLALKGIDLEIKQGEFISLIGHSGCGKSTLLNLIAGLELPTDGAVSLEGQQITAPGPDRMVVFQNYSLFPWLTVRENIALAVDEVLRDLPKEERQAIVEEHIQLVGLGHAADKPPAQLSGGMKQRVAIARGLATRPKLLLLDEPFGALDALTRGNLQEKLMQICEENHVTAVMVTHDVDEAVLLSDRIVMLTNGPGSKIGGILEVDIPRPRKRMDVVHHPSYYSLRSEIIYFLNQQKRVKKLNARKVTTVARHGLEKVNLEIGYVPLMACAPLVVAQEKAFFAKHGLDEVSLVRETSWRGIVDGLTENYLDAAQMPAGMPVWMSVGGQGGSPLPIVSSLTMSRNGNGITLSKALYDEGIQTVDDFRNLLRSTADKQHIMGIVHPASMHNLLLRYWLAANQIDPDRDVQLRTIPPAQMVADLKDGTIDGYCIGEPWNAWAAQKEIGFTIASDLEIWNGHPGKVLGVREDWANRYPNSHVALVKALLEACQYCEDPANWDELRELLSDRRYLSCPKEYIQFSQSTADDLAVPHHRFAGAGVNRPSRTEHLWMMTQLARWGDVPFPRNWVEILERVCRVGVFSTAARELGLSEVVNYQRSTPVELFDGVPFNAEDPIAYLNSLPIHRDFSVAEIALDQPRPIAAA
In words: pull-down; IMAC as above, but NBD-only construct GM339: CmpC-HA-H6 and CmpD expressed in E. coli without CmpB.

For assay [2], the target named is T1, CmpC with C-terminal HA-H6 tag (bait of the IMAC pull-down; constructs GM337, GM339) (Synechococcus sp. PCC7942). In words: pull-down; IMAC (Ni-charged resin, 4 °C, 1 h) of His6-tagged CmpC or CmpCD fusion from 1% DDM-solubilised lysate of E. coli co-expressing the epitope-tagged BCT1 subunits from one plasmid (GM337, GM341); washes with 1% DDM, 10 mM CaCl2, 20 mM NaHCO3, 5 mM MgCl2, 5 mM ATP, 5 mM Na3VO4, 20 mM imidazole; eluate blotted for the epitope tags.

These are yes or no findings as the source states them, for the method shown. Binding seen in cells or lysates may run through a third protein. Some binding calls cover weakened binding; strength is not graded here. Sequences can lack the tags named with a protein.

B1: CmpD with flag tag (constructs GM337, GM339) (protein, UniProt Q55108 1-278)
chain: MQTLRQQQPIVPSSPGHDPFLIVENVSKIYETPKGPYTVLDGVNLTVQEGEFICVIGHSGCGKSTLLNMVSGFNQPSHGSVRLKGKEIDRPGPDRMVVFQNYALLPWMTAYENVYLAVDCVNPQMREGEKREIVREHLAMVGLTEAAEKKITQISGGMKQRVAIARALSIRPEVLILDEPFGALDAITKEELQEELLKIWNDHRCTVLMITHDIDEALFLADRLVMMTNGPAANIGEIMTIPFPRPRDRERIMEDPQYYDLRNYALDFLYNRFAHDDE
On to B1, for which the binding entry in assay [1] and in assay [2] was “binds” throughout.

B2: CmpB with a small epitope tag (constructs GM337, GM341) (protein, UniProt Q55106 1-278)
chain: MVTARETRRNGSRPSGLKKWRQKLDGILLPLAGILGFLIIWQIFSSSGATRLPGPLSLFTEERTRELLLYPFLDRGGLDKGLFWQTIASLTRVAQGFSIAAIIGISVGILVGLNRQLNAMLDPLFQFLRMIAPLAWVPIALVAFQQNQPAAIFVIFITAVWPILINTAEGVRQIPQDYNNVARVLRMSKSKYLMKVVLPAALPYIFTGLRIAIGLSWLAIIAAEIVMSGIVGIGFFIWDAYQQNYVSDIILAVIYIGAVGLLLDRFVAWLQRWILRNM
For B2, in assay [2], the binding entry is given as “binds”.

For the origin of these results see article PMC11349869.
